Results as given in the supplement of paper PMC12889115.
Some of the results follow. These are raw signals, not scaled to a control.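 First-pass screen: polymyxin B was added at a level that permeabilizes the Salmonella outer membrane while sparing the inner membrane. DMSO wells, with and without polymyxin B, defined maximum growth. Because plates differed from one another, each plate's data were ranked separately and the compounds with the lowest OD600 were carried forward as hits.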

Test system: Salmonella enterica serovar Typhimurium SL1344
Assay: bacterial growth OD600 after 18 h with compound and polymyxin B; higher = more bacterial growth (less inhibition)
Conditions: 50 µM, Mueller-Hinton broth

In the case of OCc1ccc(CN2CCCC(Nc3ccc(F)c(F)c3)C2)o1 (stereo unspecified), the “bacterial growth OD600” value (polymyxin B 1 µg/mL) is reported as 0.805.
COC(=O)[C@@H]1CCCN1C(=O)c1c(OC)cc(=O)n2c1CCN(C(=O)C#Cc1ccccc1)CC2 was tested, and the “bacterial growth OD600” value (polymyxin B 0.75 µg/mL) was 0.881.
In the case of Cn1c(C(=O)N2CCC(n3nccc3NC(=O)C3CCOC3)CC2)cc2ccccc21 (stereo unspecified), the “bacterial growth OD600” value (polymyxin B 0.75 µg/mL) is reported as 0.81.
COCCCN1C(=O)CC(CC(=O)N2CCN(C3CCCC3)CC2)(c2ccccc2Cl)C1=O (stereo unspecified) was tested, and the “bacterial growth OD600” value (polymyxin B 0.75 µg/mL) was 0.862.
With O=C1O[C@@H]2CN(c3ncccc3Cl)C[C@@H]2N1C1CCCC1 the “bacterial growth OD600” value (polymyxin B 0.75 µg/mL) was 0.705.
For CCC(C)CN1CCCC(c2nc(-c3ccncc3)ncc2-c2ccccc2)C1 (stereo unspecified), the “bacterial growth OD600” value (polymyxin B 0.75 µg/mL) was 0.686.
For CSc1nccc(-c2cc(Cl)c3c(c2)CC(CNC(=O)c2cc(C(C)C)on2)O3)n1 (stereo unspecified), the “bacterial growth OD600” value (polymyxin B 0.75 µg/mL) was 0.529.
With CC(C)C(=O)NC1CC(=O)N(CCc2cccc(Cl)c2)C1 (stereo unspecified) the “bacterial growth OD600” value (polymyxin B 1 µg/mL) was 0.936.
COc1ccc(CCNC(=O)C2CCC(=O)N(C3CCCC3)C2)cc1 (stereo unspecified) was tested, and the “bacterial growth OD600” value (polymyxin B 1 µg/mL) was 0.934.
For CC(=O)Nc1ccc(CN2CCCC(N3CCN(Cc4ccc5c(c4)OCO5)CC3)C2)cc1 (stereo unspecified), the “bacterial growth OD600” value (polymyxin B 1 µg/mL) was 0.925.
Cn1cc(C(=O)N2CCC(n3nccc3NC(=O)C3CCOC3)CC2)c2ccccc21 (stereo unspecified) was tested, and the “bacterial growth OD600” value (polymyxin B 1 µg/mL) was 0.905.
In the case of CN1CCC(CN(CCc2ccccc2)C(=O)c2ccc3c(c2)OCCO3)CC1, the “bacterial growth OD600” value (polymyxin B 1 µg/mL) is reported as 1.19.
With COc1ccc(C(=O)C2CCCN(Cc3ccc(SC)cc3)C2)cc1OC (stereo unspecified) the “bacterial growth OD600” value (polymyxin B 1 µg/mL) was 0.854.
Cc1nc(-c2ccncc2)ncc1C(C)NCc1ccccn1 (stereo unspecified) was tested, and the “bacterial growth OD600” value (polymyxin B 0.75 µg/mL) was 0.776.
COc1cccc(-c2cc(CC3(O)CCN(CCCSC)CC3)on2)c1 was tested, and the “bacterial growth OD600” value (polymyxin B 1 µg/mL) was 0.836.
In the case of COCCNC(=O)c1cccc(OC2CCN(C3C4CC5CC(C4)CC3C5)CC2)c1 (stereo unspecified), the “bacterial growth OD600” value (polymyxin B 1 µg/mL) is reported as 1.03.
In the case of CN(C(=O)c1cc(Cn2ccc3ccccc32)[nH]n1)C1CCOCC1, the “bacterial growth OD600” value (polymyxin B 0.75 µg/mL) is reported as 0.838.
In the case of CCOC(=O)C1(Cc2ccc(Cl)cc2)CCN(Cc2ccon2)CC1, the “bacterial growth OD600” value (polymyxin B 1 µg/mL) is reported as 0.78.
For COCCN(C)C(=O)c1coc(COc2ccccc2)n1, the “bacterial growth OD600” value (polymyxin B 1 µg/mL) was 0.777.
With O=C1N(Cc2cccc(F)c2F)CCCC1(O)CNC1CCCC1 (stereo unspecified) the “bacterial growth OD600” value (polymyxin B 0.75 µg/mL) was 0.799.
In the case of O=C(CCC1(Cc2cccs2)CCC(=O)N1)NCc1ccccc1OC(F)(F)F (stereo unspecified), the “bacterial growth OD600” value (polymyxin B 0.75 µg/mL) is reported as 0.752.
